Data as given in PubChem BioAssay AID602196 (INSERM, 2012).
This is a random part of about 23,000 deposited reagents. 455 of them (2%) were called active. 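Active includes both protection and sensitisation; some change values fall well beyond the stated -50 to +50 range.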 Unmarked entries are inactive. Not stated in the record: the amount of reagent.

Test: 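Knock-downs that protect lung cancer cells from cisplatin or sensitise them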
System: human A549 lung cancer cells
Knock-down reagent: siRNA pair against human genes
Timing: 48 h transfection before cisplatin; time from cisplatin to read-out not stated
Conditions: cisplatin at a dose killing half of control-siRNA cells; exact dose and duration not given
Detection: 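Shift in cisplatin death relative to control siRNA, from -50 (all cells die) to +50 (no cells die); siRNAs harmful on their own scored 0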
Reading the numbers: two-siRNA summed score (-2 to +2): higher = both siRNAs protect from cisplatin killing; -2 means both sensitise; mean protection from cisplatin (shift in death) and protection from cisplatin (shift in death), siRNA C and protection from cisplatin (shift in death), siRNA D: higher = protection from cisplatin killing
Hit rule: 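Each siRNA scores 0 if harmful alone by LDH or WST-1, otherwise +1 if it reduces and -1 if it increases cisplatin killing; a gene is active when both siRNAs agree (sum +2 or -2)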
Calls: active = both siRNAs shift cisplatin killing the same way; inactive = no consistent shift, or siRNA harmful alone

Gene | two-siRNA summed score (-2 to +2) | mean protection from cisplatin (shift in death) (%) | protection from cisplatin (shift in death), siRNA C (%) | protection from cisplatin (shift in death), siRNA D (%)
LUZP2 | 0 | 5.3 | 7.7 | 2.8
STARD7-AS1 | 0 | 5.2 | -1.6 | 11.9
OR5P3 | -1 | -10.6 | -26.2 | 5
RNF125 | 0 | 2.6 | -5.5 | 10.6
GPR68 | 0 | 4 | 0.5 | 7.6
PLEKHN1 | 0 | 4 | 0.1 | 7.9
ADAMTS5 | 0 | -10.1 | -7 | -13.1
LOC375133 | 0 | -2.2 | -10.4 | 6.1
ZNF575 | 0 | 4.2 | 3.4 | 5
LOC391817 | 2 (active) | 13.4 | 16.9 | 9.9
B4GAT1 | 1 | 11.4 | 23.3 | -0.5
RASGEF1C | 0 | -1.5 | -4.6 | 1.5
OSGEPL1 | 0 | 14.9 | 18.8 | 11.1
CDC25C | -1 | -8.2 | 6.6 | -23.1
MAGEB6B | 0 | 8.1 | 10.1 | 6.1
LOC401620 | 0 | -2.4 | 6.6 | -11.4
TMPO | 0 | 4.5 | 2.7 | 6.3
CDKL1 | 0 | 4.7 | 4.5 | 5
APOH | 1 | 7.2 | 25.2 | -10.7
DIPK2A | 1 | 16.4 | 18.3 | 14.4
TNNI3 | 0 | -1.7 | -12.5 | 9.1

A stretch from the list above:
Gene | two-siRNA summed score (-2 to +2) | mean protection from cisplatin (shift in death) (%) | protection from cisplatin (shift in death), siRNA C (%) | protection from cisplatin (shift in death), siRNA D (%)
RNF125 | 0 | 2.6 | -5.5 | 10.6
GPR68 | 0 | 4 | 0.5 | 7.6

Further reagents follow.
Gene | two-siRNA summed score (-2 to +2) | mean protection from cisplatin (shift in death) (%) | protection from cisplatin (shift in death), siRNA C (%) | protection from cisplatin (shift in death), siRNA D (%)
PCLAF | 0 | 4.9 | -6.7 | 16.4
SHC1 | 0 | 2.7 | 3.6 | 1.8
TFB1M | 0 | 3.8 | -2.6 | 10.2
SKIL | 0 | 22.9 | 36.2 | 9.6
SLC24A2 | 0 | -3.6 | 1.2 | -8.4
KLHL29 | 1 | 12.8 | 14.5 | 11.2
LOC442030 | 0 | 9.1 | -1.1 | 19.3
SCAF4 | 2 (active) | 17.2 | 18.9 | 15.5
LRRC3 | 0 | 0.2 | 1.8 | -1.4
CPN1 | 1 | -1.3 | -18.1 | 15.4
DKFZp434E1410 | 1 | 17.2 | 8.8 | 25.5
UGT1A8 | 0 | 5 | 6.6 | 3.4
SMPX | 0 | 4.5 | 1.2 | 7.7
DDX1 | 0 | 7.9 | 27.9 | -12
DUSP8 | 1 | 17.2 | 1.9 | 32.6
OLFML1 | 1 | 18.4 | 17.7 | 19
PRKAR2A | 0 | 0.5 | -0.4 | 1.5
LOC392702 | 0 | 7.8 | 4.4 | 11.3
